Data as given in PubChem BioAssay AID2685 (National Center for Advancing Translational Sciences (NCATS), 2010).
Hit rate of the full screen: of about 320,000 compounds, about 2,100 (0.66%) were called active. Inconclusive results, whose numbers are uncertain, are shown with a selection of clear calls. Calls come from the whole dose curve; as a rule, active = well fitted inhibition curve with a large enough effect in the signal ratio, with a control signal flat (not every such curve was filed as active); inconclusive = small, poorly fitted or top-dose-only effect, or effect the other way, or a change in a side signal; inactive = flat fitted curve, though single readings scatter; the % refers to the signal ratio. Potencies beside an inconclusive call are fits to weak or partial responses and may not hold up.

test: qHTS Assay for Lipid Storage Modulators in Drosophila S3 Cells; details: BODIPY lipid droplet fluorescence, 18-24 h, cells fed with added oleic acid; lipid storage change, negative = inhibition: at 46.1 µM (top of the series) unless noted
Summary of the method: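 Drosophila S3 cells got compounds at several concentrations plus oleic acid (400 uM solution). Laser-scanning cytometry with 488 nm excitation read lipid droplets at 500-530 nm and cells at 575-640 nm. Percent activity was relative to 20 uM Triacsin C.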
% is set by controls: 0 for no effect and ±100 for the full control effect; potency is the fitted concentration of half-maximal effect.

| SMILES | lipid storage change, negative = inhibition | Potency | outcome |
| --- | --- | --- | --- |
| Cc1sc2nc(SCC(=O)N3CC(C)OC(C)C3)n(C)c(=O)c2c1C (centres undefined) | inconclusive: -82.3% |  |  |
| CC1CC(C)CN(C(=O)c2ccc(C#N)cc2)C1 (centres undefined) | inconclusive: -41.7% |  |  |
| O=C(NCc1ccccc1Cl)C(=O)NCC1CCCN1S(=O)(=O)c1cccs1 (centres undefined) | inconclusive |  |  |
| Cc1cc(NC(=O)CN2CCCCCCC2)no1 | inconclusive: -10.6% |  |  |
| Cc1ccc(C)c(C(=O)CSc2nc(N)cc(=O)[nH]2)c1 | inconclusive: -100% |  |  |
| O=C(N1CCOCC1)N1CCCC(c2nc(-c3cccs3)no2)C1 (centres undefined) | inconclusive: -32.6% |  |  |
| COCc1c(C)cc(C)c(/C=N/O)c1C |  | inconclusive: 0.517 µM [rising, full curve, poor fit] |  |
| Cc1c(NC(=S)N/N=C/c2ccc(Br)cc2)c(=O)n(-c2ccccc2)n1C | inconclusive: 7.61% |  |  |
| C/C(CC(C)C)=N\NC(=O)Nc1ccccc1 | inconclusive: -12.5% |  |  |
| O=C(NCCCCc1ccccc1)c1ccccc1F |  | inconclusive: 7.31 µM [falling, partial curve] |  |
| Cc1cc2c(cc1S(=O)(=O)N(C)c1ccccc1)NC(=O)CO2 | inactive: -11.8% |  |  |
| C1CCC2(CC1)OCC1(CO2)COC2(CCCCC2)OC1 | inconclusive: -5.79% |  |  |
| CC(C)NS(=O)(=O)c1ccc(OCC(=O)Nc2ccc3c(c2)OCO3)c(Cl)c1 |  | inconclusive: 0.0082 µM [rising, full curve, poor fit] |  |
| CC(=O)Oc1ccc2c(c1)OC(c1ccccc1)CC21CC(C)(C)NC(=S)N1 (centres undefined) | inconclusive: 17.3% |  |  |
| O=C(O)CCC(=O)N1N=C(c2ccc(Br)cc2)CC1c1cccc(Br)c1 (centres undefined) | inconclusive: -56.4% |  |  |
| CCCN1C(=O)c2ccc(C(=O)Nc3cc(C)on3)cc2C1=O | inconclusive: 8.06% |  |  |
| Cc1cccc(Nc2ccc([N+](=O)[O-])cc2C(=O)O)c1 | inconclusive: 24.5% |  |  |
| CC(C(=O)NC1C=CS(=O)(=O)C1)N1C(=O)/C(=C/c2ccc(Cl)cc2)SC1=S (centres undefined) |  | inconclusive: 29.1 µM [activator, single point] |  |
| CC(C)c1nc(SCC(=O)c2ccccc2)c2c(=O)n(C)c(=O)n(C)c2n1 | inconclusive: 24.1% |  |  |
| O=C(NCC(=O)N1CCOCC1)c1ccc(Br)cc1 | inconclusive: 20.9% |  |  |
| CCOC(=O)N1CCN(C(=O)c2ccc3nc(-c4ccccc4)c(-c4ccccc4)nc3c2)CC1 | inconclusive: 0.865% |  |  |
| COc1ccccc1NC(=S)N(CCc1nc2cc(C)c(C)cc2[nH]1)Cc1cccnc1 |  | inconclusive: 0.82 µM [falling, full curve, poor fit] |  |
| COc1cc2c(=O)n(Cc3ccccc3)c(=O)n(CC(=O)NCC3CCCO3)c2cc1OC (centres undefined) |  | inconclusive: 5.17 µM [activator, partial curve] |  |
| FC(F)(F)c1cccc(-c2ccn3ncnc3n2)c1 | inactive: 8.44% |  |  |
| CSCCC(NS(=O)(=O)c1ccc(Cl)cc1)C(=O)OCC(=O)N1CCOCC1 (centres undefined) |  | inconclusive: 0.103 µM [falling, full curve, poor fit] |  |
| COc1ccc(CCNC(=O)Cn2cccc2C(=O)c2ccccc2)c(OC)c1 | inactive: 2.64% |  |  |
| CC1=C([N+](=O)[O-])C(c2ccccc2Cl)NC(=O)N1 (centres undefined) | inconclusive: 10.9% |  |  |

Gathered by group, those above with an aryl thioether with sulfur outside any ring (3)

| SMILES | lipid storage change, negative = inhibition | Potency | outcome |
| --- | --- | --- | --- |
| Cc1sc2nc(SCC(=O)N3CC(C)OC(C)C3)n(C)c(=O)c2c1C (centres undefined) | inconclusive: -82.3% |  |  |
| Cc1ccc(C)c(C(=O)CSc2nc(N)cc(=O)[nH]2)c1 | inconclusive: -100% |  |  |
| CC(C)c1nc(SCC(=O)c2ccccc2)c2c(=O)n(C)c(=O)n(C)c2n1 | inconclusive: 24.1% |  |  |

More results.

| SMILES | lipid storage change, negative = inhibition | Potency | outcome |
| --- | --- | --- | --- |
| CCCCCc1nnc(NC(=O)Cn2cnc3ccccc3c2=O)s1 | inconclusive: -2.21% |  |  |
| O=S(=O)(Nc1cccnc1)c1cccs1 | inconclusive: 32.6% |  |  |
| O=C(Nc1nc(-c2cccs2)cs1)c1ccc(Cl)s1 |  | inconclusive: 18.4 µM [falling, partial curve] |  |
| CCOc1ccc(N(CC(=O)NCc2ccc3c(c2)OCO3)C(=O)c2csnn2)cc1 | inconclusive: 68.2% |  |  |
| COc1ccc(NC(=O)CSc2nc(=O)n(CCN3CCOCC3)c3c2CCCC3)c(OC)c1 |  | inconclusive: 1.84 µM [rising, partial curve] |  |
| COc1ccc(/C=C/C(=O)Nc2cc(S(=O)(=O)N3CCOCC3)ccc2C)cc1OC | inconclusive: -13.9% |  |  |
| COc1cc(NC(=O)C2=CC(c3ccc(C)cc3)=NS(=O)(=O)N2C)cc(OC)c1OC |  | active: 1.46 µM |  |
| Cc1ccc(C)c(Oc2coc3cc(O)ccc3c2=O)c1 | inconclusive: 54% |  |  |
| CCOCCCn1c(=S)[nH]c2cc(C(=O)NCCc3ccccc3)ccc2c1=O |  |  | inactive [at 46.1 µM] |
| CC(=O)c1ccc(OCC(O)CN2CC(C)OC(C)C2)cc1 (centres undefined) | inconclusive: -176% |  |  |
| COCC(C)NCc1cccc(OC)c1OC (centres undefined) | inconclusive: -10.9% |  |  |
| O=C(O)C1Sc2[nH]c(=O)sc2C2c3cc(Br)ccc3OC(=O)C12 (centres undefined) | inconclusive: -36.9% |  |  |
| CCOC(=O)c1ccc(NC(=O)c2ccc(OC(C)C)c(OC)c2)cc1 |  | inconclusive: 20.6 µM [rising, partial curve] |  |
| CCOC(=O)C(NC(=O)c1ccccc1)=C1C=C(C)OC(C)=C1 |  | inconclusive: 2.31 µM [falling, full curve] |  |
| CC(=O)c1cccc(NC(=S)Nc2ccc(F)cc2)c1 | inconclusive: -182% |  |  |
| O=C(CCc1nnc(CCC2CCCCC2)o1)NCCn1cccn1 | inconclusive: -15.6% |  |  |
| O=C(O)CSc1nnc(Cn2cnc3ccccc32)n1CCc1ccccc1 | inconclusive: 38.8% |  |  |
| c1cnc(Nc2nc(-c3ccc4ccccc4c3)cs2)nc1 | inconclusive: 34.4% |  |  |
| CC(=O)OCn1nnc2ccccc2c1=O | inactive: 3.6% |  |  |
| CC(=O)n1cc([C@@H]2C=C(C(=O)N3CCN(Cc4ccc5c(c4)OCO5)CC3)O[C@H](OCc3ccc(CO)cc3)C2)c2ccccc21 |  | inconclusive: 29.1 µM [falling, single point] |  |
| Cc1ccc2nc(NC(=O)c3ccc(S(=O)(=O)N4CCCc5ccccc54)cc3)sc2c1 | inconclusive: -11.3% |  |  |
| COc1ccc(OC)c(-c2nn(-c3ccccc3)cc2C(=O)NCC(c2ccco2)N2CCCC2)c1 (centres undefined) |  | inconclusive: 3.66 µM [falling, single point] |  |
| CC(CCc1ccccc1)NC(=O)C(=O)Nc1ccccc1 (centres undefined) | inconclusive: 25.2% |  |  |
| O=C1c2ccc3c4c(ccc(c24)C(=O)N1c1cccc(O)c1)C(=O)N(c1cccc(O)c1)C3=O |  | inconclusive: 6.51 µM [falling, partial curve] |  |
| O=C(C[C@H]1C(=O)N(C2CCCCC2)C[C@@H]1Cc1ccccc1)Nc1ccccc1 |  | inconclusive: 29.1 µM [falling, single point] |  |
| CC(=O)Nc1ccc(-c2cc(-c3ccc(NC(C)=O)cc3)nc(-c3ccccc3)n2)cc1 | inconclusive: -15.1% |  |  |
| O=C(Nc1cccc(Cl)c1)c1cccc(N2C(=O)C3CC=CCC3C2=O)c1 (centres undefined) | inconclusive: -28.8% |  |  |

| SMILES | lipid storage change, negative = inhibition | Potency | outcome |
| --- | --- | --- | --- |
| CCOC(=O)c1ccccc1NC(=O)CSc1nc2ccccc2o1 | inconclusive: 13.4% |  |  |
| Cc1ccc(S(=O)(=O)N(C)C)cc1NC(=O)Nc1ccccc1F |  | inconclusive: 7.31 µM [cytotoxic, single point] |  |
| Cc1cccc(C(=O)Nc2ccc(C(=O)/C=C/c3ccncc3)cc2)c1 |  | active: 6.51 µM |  |
| O=C(O)C(Cc1ccccc1)NS(=O)(=O)c1ccc(Cl)cc1 (centres undefined) | inconclusive: -0.76% |  |  |
| O=C(O)CNC(=O)C12CC3CC(CC(Cl)(C3)C1)C2 | inconclusive: 4.89% |  |  |
| O=C(CN1CCN(C/C=C/c2ccccc2)CC1)Nc1ccccc1C(=O)NC1CC1 | inconclusive: 7.29% |  |  |
| Cc1cccc(N(C)S(=O)(=O)c2csc(C(N)=O)c2)c1 | inconclusive: 23.7% |  |  |
| Cc1ccc(S(=O)(=O)N2[C@@H](c3ccccc3)C(C(=O)O)=CC[C@H]2c2cccc(Cl)c2)cc1 | inconclusive: 15.2% |  |  |
| C[n+]1ccc(/C=C/c2c[nH]c3ccccc23)cc1 |  | active: 4.11 µM |  |
| CCOc1ccc(N=C(NC#N)SCC(=O)NC2CC2)cc1 | inconclusive: 49.4% |  |  |
| Oc1oc(-c2ccccc2)nc1/C=N/c1ccccn1 | inconclusive: -3.82% |  |  |
| CC(C)(C)NC(=O)c1cc(-c2ccccc2)n[nH]1 | inactive: 4.25% |  |  |
| CCN(Cc1ccccc1)S(=O)(=O)c1ccc(S(=O)(=O)N2CCN(CCC#N)CC2)cc1 | inconclusive: 24.9% |  |  |
| Cc1ccc(-c2csc(NC(=O)C3=COCCO3)n2)cc1 | inactive: 12.5% |  |  |
| CC(C)c1ccc(-c2cc(C(=O)N3CCOCC3)c3cc(Br)ccc3n2)cc1 | inconclusive: -65.2% |  |  |
| CN(C)C=Nc1ccc2nc3c(cc2c1)[nH]c1ccccc13 | inconclusive: -20.6% |  |  |
| COC(=O)CCC(=O)Nc1sc2c(c1C#N)CCCC2 |  | inconclusive: 16.4 µM [activator, single point] |  |
| N=C1C(c2ccccc2)=C(O)CN1c1cccc(S(=O)(=O)N2CCOCC2)c1 | inconclusive: 3.73% |  |  |
| CCC1=C(OC(=O)N(CC)CC)N2C(=O)OC(=NCc3ccccc3)[C@]2(C)[C@H]2C1=CC[C@H]1C(=O)N(CC(=O)OC)C(=O)[C@H]12 | inconclusive: 11.3% |  |  |
| CCc1nc(SCC(=O)Nc2ccccc2)c2c(=O)n(C)c(=O)n(C)c2n1 |  | active: 7.31 µM |  |
| NS(=O)(=O)c1ccc(NC(=O)CSc2nnc(-c3cnccn3)n2-c2ccccc2)cc1 |  | inconclusive: 2.59 µM [activator, partial curve, poor fit] |  |
| Cc1[nH]nc2c1C(c1ccccc1F)NC2=O (centres undefined) | inconclusive: -32.1% |  |  |
| O=S1(=O)N=C(N(CCO)/N=C/c2ccccc2F)c2ccccc21 | inconclusive: 5.42% |  |  |
| Cc1ccc(O)c(NC(=O)c2cc(-c3ccc(F)cc3)on2)c1 |  | inconclusive: 0.92 µM [falling, partial curve, poor fit] |  |
| CC(=O)Nc1ccc(S(=O)(=O)Nc2nccc(C3Cc4ccccc4C(=O)O3)n2)cc1 (centres undefined) |  | active: 14.6 µM |  |

Quoted at random: three compounds from above

| SMILES | lipid storage change, negative = inhibition | Potency | outcome |
| --- | --- | --- | --- |
| O=C(CN1CCN(C/C=C/c2ccccc2)CC1)Nc1ccccc1C(=O)NC1CC1 | inconclusive: 7.29% |  |  |
| C[n+]1ccc(/C=C/c2c[nH]c3ccccc23)cc1 |  | active: 4.11 µM |  |
| Cc1cccc(C(=O)Nc2ccc(C(=O)/C=C/c3ccncc3)cc2)c1 |  | active: 6.51 µM |  |
